Test results published in article PMC4574351, “Tubulin cofactors and Arl2 are cage-like chaperones that regulate the soluble αβ-tubulin pool for microtubule dynamics” (eLife, 2015).
These are yes or no findings as the source states them, for the method shown. Some results given as binding are weak or reduced against the parent protein; the word gives no strength.

T1: Tubulin cofactor E (TBCE), S. cerevisiae Pac2p (S. cerevisiae) (UniProt P39937)
T1 sequence: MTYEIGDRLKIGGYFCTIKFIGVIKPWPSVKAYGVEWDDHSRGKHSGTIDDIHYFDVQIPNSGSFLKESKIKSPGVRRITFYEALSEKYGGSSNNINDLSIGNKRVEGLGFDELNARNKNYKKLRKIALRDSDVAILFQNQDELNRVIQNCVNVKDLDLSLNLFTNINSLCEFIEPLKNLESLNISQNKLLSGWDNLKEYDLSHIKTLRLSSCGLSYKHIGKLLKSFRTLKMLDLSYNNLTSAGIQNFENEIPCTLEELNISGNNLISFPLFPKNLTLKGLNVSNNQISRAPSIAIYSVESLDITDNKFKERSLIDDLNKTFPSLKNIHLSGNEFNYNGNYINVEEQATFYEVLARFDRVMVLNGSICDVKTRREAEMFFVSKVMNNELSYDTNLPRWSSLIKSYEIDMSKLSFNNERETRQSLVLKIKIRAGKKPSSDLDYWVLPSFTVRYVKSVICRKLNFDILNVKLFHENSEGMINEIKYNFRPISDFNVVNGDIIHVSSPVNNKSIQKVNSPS


What was measured:
[1] = molecular target: Tubulin cofactor C (TBCC), S. cerevisiae Cin2p (S. cerevisiae) (UniProt P46670); assay: SEC-MALS; WTC-03S5 column; purified TBC-DEG (subunits co-expressed and co-purified), αβ-tubulin, TBCC and their complexes; ternary complex with GDP·ALFx (wild type) or GTP (Q73L); both purified
[2] = molecular target: T1, Tubulin cofactor E (TBCE), S. cerevisiae Pac2p (S. cerevisiae); assay: negative-stain EM single-particle reconstruction; SEC purified complexes at 0.5 mg/ml in 50 mM HEPES, 100 mM KCl, 0.1 mM GTP, 3 mM β-mercaptoethanol; 1% uranyl formate; 24 Å maps with docked models of subunits or their homologs; both purified

Row | binding [1] | binding [2] | Binder
1 | no binding | – | Tubulin cofactor C (TBCC), S. cerevisiae Cin2p (protein, UniProt P46670 1-268) MDFTAKIKELERELSETSDYKTLQKKTISLRSELNTLSHSLTSYEKEHFSNDIENVLKSINAKLSESKGKKRLFSFKQKNSSSAVHKNVERTELANAPAYTTTLKKHYVLEKGDSAFENLEFCTVTSTTDYSGNSALSGSLCFRNITKCVINLQRIFFQTGSIFITDCTDSIIFLRSPSDKDFQIRLRDLKNCKILIEKLSPSIDCKQVVIIENCHKCIFNASTRDHLIIQDFSNPFQSEETEDNSAFAFEDFDICNKDTMQLFRAYL
2 | – | binds | Arl2 Gln73Leu (Q73L), S. cerevisiae Cin4p, GTP-locked mutant (enzyme, UniProt P39110 1-191) MGLLSIIRKQKLRDKEIRCLILGLDNSGKSTIVNKLLPKDEQNNDGIMPTVGFQIHSLMIKDVTISLWDIGGLRTLRPFWDNYFDKTQAMIWCIDVSLSMRFDETLQELKELINRDENRIGYECAVIVVLNKIDLVEDKSELHRRCLLVESELKCLFKPDIRIELVKCSGVTGEGIDNLRDRLVESCHFTQ
